Data published in the supplement of paper PMC10849652.
The other results are listed elsewhere or left out. Residues, ends and D or L forms follow the SMILES beside them. *: point of attachment. Cbz = O=C(OCc1ccccc1)*

Protein sequences, listed by entry. Tags and fused reporters are not part of them. Lines headed by an entry give the natural chain unless they say otherwise; changes in a name come on top.
UniProt O15382: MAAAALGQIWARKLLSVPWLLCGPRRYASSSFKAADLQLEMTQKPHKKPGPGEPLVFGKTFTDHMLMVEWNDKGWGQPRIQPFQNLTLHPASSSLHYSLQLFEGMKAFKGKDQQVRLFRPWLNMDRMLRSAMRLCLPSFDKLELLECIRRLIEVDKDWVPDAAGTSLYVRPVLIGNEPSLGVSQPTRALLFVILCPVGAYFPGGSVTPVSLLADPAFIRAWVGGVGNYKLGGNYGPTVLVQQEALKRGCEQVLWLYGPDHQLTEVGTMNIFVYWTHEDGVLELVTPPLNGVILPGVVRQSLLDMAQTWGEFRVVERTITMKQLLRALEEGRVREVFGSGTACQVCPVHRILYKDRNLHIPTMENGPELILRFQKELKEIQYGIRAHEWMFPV
UniProt P12694: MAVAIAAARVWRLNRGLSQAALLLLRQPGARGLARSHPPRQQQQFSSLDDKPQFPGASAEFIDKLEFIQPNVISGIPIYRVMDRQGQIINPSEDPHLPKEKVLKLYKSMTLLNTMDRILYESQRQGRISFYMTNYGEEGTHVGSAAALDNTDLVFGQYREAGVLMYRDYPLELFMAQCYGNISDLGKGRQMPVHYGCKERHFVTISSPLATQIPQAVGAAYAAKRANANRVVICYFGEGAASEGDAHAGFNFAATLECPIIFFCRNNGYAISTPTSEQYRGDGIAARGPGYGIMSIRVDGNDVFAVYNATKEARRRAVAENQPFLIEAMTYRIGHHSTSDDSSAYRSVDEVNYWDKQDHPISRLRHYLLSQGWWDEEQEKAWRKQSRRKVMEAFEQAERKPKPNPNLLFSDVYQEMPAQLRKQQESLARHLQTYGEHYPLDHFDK
UniProt P78537: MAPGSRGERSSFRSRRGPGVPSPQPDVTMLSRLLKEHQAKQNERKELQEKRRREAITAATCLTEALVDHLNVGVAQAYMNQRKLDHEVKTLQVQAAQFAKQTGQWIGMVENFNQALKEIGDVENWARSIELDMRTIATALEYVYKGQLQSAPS
UniProt P51572: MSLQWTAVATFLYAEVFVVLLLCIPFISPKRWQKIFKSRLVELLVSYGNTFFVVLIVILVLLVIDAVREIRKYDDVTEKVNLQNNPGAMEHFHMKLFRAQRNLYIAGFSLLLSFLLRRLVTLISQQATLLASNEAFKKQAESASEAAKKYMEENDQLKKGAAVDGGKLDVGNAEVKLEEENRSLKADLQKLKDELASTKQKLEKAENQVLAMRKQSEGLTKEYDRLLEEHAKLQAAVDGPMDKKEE
UniProt Q9BXH1: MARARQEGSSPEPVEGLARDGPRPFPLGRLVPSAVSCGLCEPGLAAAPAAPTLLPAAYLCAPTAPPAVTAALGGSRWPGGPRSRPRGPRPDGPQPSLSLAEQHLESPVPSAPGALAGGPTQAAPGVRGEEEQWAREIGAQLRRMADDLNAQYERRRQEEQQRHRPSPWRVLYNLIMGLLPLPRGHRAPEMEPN
UniProt Q9NY97: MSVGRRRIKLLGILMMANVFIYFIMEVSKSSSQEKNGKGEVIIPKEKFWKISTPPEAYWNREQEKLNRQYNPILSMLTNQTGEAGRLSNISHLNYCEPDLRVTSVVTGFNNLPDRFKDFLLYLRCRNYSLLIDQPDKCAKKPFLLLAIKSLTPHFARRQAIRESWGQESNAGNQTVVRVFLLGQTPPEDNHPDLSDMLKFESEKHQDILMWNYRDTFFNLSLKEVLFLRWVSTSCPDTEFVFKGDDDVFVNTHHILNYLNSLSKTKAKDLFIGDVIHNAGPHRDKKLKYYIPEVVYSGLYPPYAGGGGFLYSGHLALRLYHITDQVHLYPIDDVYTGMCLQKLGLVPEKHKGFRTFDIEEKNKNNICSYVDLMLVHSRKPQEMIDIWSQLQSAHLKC
UniProt P07738: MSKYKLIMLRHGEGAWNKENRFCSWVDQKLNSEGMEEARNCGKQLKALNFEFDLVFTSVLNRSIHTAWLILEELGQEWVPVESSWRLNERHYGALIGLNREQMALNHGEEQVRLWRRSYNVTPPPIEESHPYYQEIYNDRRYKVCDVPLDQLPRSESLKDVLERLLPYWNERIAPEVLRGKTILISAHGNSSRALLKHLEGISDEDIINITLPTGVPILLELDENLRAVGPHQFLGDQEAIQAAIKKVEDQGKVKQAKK
UniProt Q67FW5: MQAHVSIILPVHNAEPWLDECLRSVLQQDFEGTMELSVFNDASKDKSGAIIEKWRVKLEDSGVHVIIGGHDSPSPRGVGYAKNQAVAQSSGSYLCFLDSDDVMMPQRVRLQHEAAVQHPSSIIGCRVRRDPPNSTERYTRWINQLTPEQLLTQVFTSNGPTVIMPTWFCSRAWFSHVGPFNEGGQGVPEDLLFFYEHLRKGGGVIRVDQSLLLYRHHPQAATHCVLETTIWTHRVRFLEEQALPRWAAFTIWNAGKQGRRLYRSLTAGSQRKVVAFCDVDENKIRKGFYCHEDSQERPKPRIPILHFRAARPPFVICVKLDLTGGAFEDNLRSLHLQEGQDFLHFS
UniProt Q8WWM7: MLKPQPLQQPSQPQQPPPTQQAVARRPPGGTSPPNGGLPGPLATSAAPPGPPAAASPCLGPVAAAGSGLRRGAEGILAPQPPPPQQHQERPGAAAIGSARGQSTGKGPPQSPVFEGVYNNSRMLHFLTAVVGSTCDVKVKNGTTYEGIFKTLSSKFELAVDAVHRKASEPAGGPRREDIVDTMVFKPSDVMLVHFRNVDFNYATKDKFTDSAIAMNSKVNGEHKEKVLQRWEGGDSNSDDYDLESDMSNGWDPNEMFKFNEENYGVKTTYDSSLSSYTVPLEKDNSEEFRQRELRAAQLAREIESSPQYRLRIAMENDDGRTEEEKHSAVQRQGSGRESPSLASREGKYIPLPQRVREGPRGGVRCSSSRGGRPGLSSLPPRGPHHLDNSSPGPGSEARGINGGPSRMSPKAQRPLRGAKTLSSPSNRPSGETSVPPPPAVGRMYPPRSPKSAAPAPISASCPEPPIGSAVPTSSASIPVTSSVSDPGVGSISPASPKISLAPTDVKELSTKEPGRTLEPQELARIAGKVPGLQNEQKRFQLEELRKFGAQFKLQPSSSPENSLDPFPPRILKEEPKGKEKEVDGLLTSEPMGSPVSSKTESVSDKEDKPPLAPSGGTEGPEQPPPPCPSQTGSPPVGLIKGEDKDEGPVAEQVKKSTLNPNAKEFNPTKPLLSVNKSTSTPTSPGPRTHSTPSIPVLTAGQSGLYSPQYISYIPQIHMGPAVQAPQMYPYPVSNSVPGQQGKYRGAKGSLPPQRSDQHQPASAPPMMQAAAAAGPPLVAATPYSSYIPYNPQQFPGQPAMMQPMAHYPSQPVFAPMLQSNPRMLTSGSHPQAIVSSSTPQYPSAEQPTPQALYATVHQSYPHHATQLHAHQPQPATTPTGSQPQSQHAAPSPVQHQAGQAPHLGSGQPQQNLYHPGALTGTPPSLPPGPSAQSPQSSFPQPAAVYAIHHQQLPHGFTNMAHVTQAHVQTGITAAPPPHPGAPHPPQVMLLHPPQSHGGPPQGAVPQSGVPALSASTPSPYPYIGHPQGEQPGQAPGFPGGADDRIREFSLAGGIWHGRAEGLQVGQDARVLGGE
UniProt P25311: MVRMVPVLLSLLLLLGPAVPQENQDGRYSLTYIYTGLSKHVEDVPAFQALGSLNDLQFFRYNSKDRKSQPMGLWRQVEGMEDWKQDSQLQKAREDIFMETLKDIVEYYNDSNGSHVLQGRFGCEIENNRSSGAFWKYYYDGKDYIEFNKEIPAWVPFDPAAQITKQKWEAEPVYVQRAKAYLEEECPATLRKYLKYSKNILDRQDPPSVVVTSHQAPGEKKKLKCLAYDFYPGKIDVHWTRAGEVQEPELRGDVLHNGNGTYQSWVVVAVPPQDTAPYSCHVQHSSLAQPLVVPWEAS
UniProt Q13867: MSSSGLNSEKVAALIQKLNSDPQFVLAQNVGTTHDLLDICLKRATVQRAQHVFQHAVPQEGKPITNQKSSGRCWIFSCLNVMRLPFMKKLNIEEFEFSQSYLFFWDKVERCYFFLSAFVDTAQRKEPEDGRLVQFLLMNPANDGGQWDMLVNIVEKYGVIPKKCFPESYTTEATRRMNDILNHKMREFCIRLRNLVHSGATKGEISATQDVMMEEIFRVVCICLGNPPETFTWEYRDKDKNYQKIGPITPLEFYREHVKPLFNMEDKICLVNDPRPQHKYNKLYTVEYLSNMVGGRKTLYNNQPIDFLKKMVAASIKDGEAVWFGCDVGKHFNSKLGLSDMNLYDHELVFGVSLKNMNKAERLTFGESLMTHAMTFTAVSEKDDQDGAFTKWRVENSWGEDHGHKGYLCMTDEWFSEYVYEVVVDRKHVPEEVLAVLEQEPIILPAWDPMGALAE
UniProt Q9NXR7, whole entry, looked up: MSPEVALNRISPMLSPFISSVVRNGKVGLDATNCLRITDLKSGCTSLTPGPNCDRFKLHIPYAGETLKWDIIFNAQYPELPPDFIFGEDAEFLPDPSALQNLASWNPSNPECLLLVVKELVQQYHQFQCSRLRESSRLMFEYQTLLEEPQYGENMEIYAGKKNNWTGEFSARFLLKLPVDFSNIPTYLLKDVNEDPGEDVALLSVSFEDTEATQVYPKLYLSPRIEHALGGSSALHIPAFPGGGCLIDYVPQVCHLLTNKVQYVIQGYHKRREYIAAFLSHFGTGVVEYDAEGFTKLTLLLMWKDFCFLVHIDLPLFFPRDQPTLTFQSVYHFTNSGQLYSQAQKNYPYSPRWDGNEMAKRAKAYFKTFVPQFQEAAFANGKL
UniProt Q07812, whole entry, looked up: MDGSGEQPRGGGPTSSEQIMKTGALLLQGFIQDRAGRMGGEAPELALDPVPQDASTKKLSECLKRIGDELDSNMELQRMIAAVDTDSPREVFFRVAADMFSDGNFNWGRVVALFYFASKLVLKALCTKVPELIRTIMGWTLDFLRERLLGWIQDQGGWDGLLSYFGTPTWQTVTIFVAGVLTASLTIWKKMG
UniProt Q9Y276: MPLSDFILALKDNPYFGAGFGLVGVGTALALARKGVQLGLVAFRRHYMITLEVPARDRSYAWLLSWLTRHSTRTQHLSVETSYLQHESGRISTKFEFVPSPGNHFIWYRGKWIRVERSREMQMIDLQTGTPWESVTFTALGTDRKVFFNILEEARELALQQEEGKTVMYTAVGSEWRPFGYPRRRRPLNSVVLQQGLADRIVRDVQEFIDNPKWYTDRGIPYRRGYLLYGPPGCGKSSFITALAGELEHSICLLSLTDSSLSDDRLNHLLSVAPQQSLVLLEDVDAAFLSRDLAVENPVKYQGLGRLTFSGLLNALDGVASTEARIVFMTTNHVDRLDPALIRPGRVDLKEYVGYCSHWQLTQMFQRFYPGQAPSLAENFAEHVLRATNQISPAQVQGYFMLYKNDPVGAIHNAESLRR
UniProt P54687: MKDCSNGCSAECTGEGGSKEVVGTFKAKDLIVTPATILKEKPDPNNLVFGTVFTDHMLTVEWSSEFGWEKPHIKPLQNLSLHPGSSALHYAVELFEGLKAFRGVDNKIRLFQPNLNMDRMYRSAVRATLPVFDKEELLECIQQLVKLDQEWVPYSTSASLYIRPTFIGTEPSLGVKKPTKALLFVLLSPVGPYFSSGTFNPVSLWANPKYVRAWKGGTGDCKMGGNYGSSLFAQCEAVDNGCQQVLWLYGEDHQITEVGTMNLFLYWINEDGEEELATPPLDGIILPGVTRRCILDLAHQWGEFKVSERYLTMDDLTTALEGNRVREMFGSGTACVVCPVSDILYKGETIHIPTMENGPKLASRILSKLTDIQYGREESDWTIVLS
UniProt Q8WY22: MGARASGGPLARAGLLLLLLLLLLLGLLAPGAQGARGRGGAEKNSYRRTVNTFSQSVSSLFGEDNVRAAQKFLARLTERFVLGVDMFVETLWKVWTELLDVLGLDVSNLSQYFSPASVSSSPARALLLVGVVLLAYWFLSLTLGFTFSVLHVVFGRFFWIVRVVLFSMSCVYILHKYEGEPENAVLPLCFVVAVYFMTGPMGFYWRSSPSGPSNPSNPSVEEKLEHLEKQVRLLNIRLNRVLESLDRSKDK

Assays:
Assay in all cases: log2 fold change, soluble protein after heating vs DMSO (PISA); higher = thermal stabilisation; K562 cells, 10 uM, 30 min; active = over 0.2 and 3.5 SD of the protein, either way, in both replicates (recomputed)
IRAK-1-4 Inhibitor I = compound: C1COCCN1CCN2C3=CC=CC=C3N=C2NC(=O)C4=CC(=CC=C4)[N+](=O)[O-] [IRAK-1-4 Inhibitor I]
In short: (§1)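 K562 cells at 2×10^6 cells/mL were treated for 30 min with 10 μM compound, and aliquots were heated for 3 min over 48°C-58°C before pooling. Extraction used PBS with 0.5% NP-40 at 4°C, and soluble protein was the supernatant after 21,000xg for 90 min, measured by TMTpro 16plex LC-MS/MS with channel sums equalised. Thermal stability values, relative to control samples and from duplicates, are log2 fold changes.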

ibrutinib = compound: C=CC(=O)N1CCC[C@@H](n2nc(-c3ccc(Oc4ccccc4)cc3)c3c(N)ncnc32)C1 [ibrutinib]
In short: as §1

[1] = compound: CC(=O)c1cnc2ccc(-c3cc(Cl)c(O)c(Cl)c3)nc2c1N[C@H]1CC[C@H](CN(C)C)CC1
In short: as §1

ralimetinib = compound: CC(C)(C)Cn1c(N)nc2ccc(-c3[nH]c(C(C)(C)C)nc3-c3ccc(F)cc3)nc21 [ralimetinib]
In short: as §1

[2] = compound: CC(C)(O)CC(=O)NCCn1ccc2ncnc(Nc3ccc(Oc4cccc(C(F)(F)F)c4)c(Cl)c3)c21
In short: as §1

[3] = compound: CC(C)C1=C2N=C(C=C(N2N=C1)NCC3=CC=CC=C3)NCCCCCCN
In short: as §1

[4] = compound: CC(C)C[C@@H](C=O)NC(=O)[C@H](CC(C)C)NC(=O)[C@H](CC(C)C)NC(=O)OCc1ccccc1
In short: as §1

pinometostat = compound: CC(C)N(C[C@H]1O[C@@H](n2cnc3c(N)ncnc32)[C@H](O)[C@@H]1O)[C@H]1C[C@@H](CCc2nc3cc(C(C)(C)C)ccc3[nH]2)C1 [pinometostat]
In short: as §1

[5] = compound: CC1=C(C(CC(=O)N1)C2=CC=C(C=C2)C(F)(F)F)C(=O)NC3=C(C=C4C(=C3)C=NN4)F
In short: as §1

[6] = compound: CC1=C(C2=C(C=C1)C(=O)C3=CC=CC=C3N2CCCN)C
In short: as §1

[7] = compound: CC1=C(C=C(C=C1)NC(=O)C2=CC(=CC=C2)C(C)(C)C#N)NC3=CC4=C(C=C3)N=CN(C4=O)C
In short: as §1

[8] = compound: CC1=C(C=C(C=C1)NC(=O)C2=CC(=CC=C2)N(C)C)NC(=O)C3=CC=C(C=C3)O
In short: as §1

[9] = compound: CC1=CC=C(C=C1)SC2=C3C=C(SC3=CN=C2)C(=O)N
In short: as §1

[10] = compound: CC1=NC(=CC=C1)C2=C(N=C(N2)C(C)(C)C)C3=CC4=NC=CN=C4C=C3
In short: as §1

Nexturastat A = compound: CCCCN(Cc1ccc(C(=O)NO)cc1)C(=O)Nc1ccccc1 [Nexturastat A]
In short: as §1

vemurafenib = compound: CCCS(=O)(=O)Nc1ccc(F)c(C(=O)c2c[nH]c3ncc(-c4ccc(Cl)cc4)cc23)c1F [vemurafenib]
In short: as §1

[11] = compound: CCCS(=O)(=O)Nc1ccc(F)c(C(=O)c2c[nH]c3ncc(Cl)cc23)c1F
In short: as §1

[12] = compound: CCCc1cc(C)[nH]c(=O)c1CNC(=O)c1cc(-c2ccnc(N3CCN(C)CC3)c2)cc2c1cnn2C(C)C
In short: as §1

givinostat = compound: CCN(CC)Cc1ccc2cc(COC(=O)Nc3ccc(C(=O)NO)cc3)ccc2c1 [givinostat]
In short: as §1

barasertib = compound: CCN(CCCOc1ccc2c(Nc3cc(CC(=O)Nc4cccc(F)c4)[nH]n3)ncnc2c1)CCOP(=O)(O)O [barasertib]
In short: as §1

Measured: log2 fold change

BCAT2 (UniProt O15382)
inactive: IRAK-1-4 Inhibitor I 0.005 | ibrutinib 0.013 | [1] -0.03 | ralimetinib -0.056 | [2] -0.015 | [3] 0.039 | [4] -0.019 | pinometostat -0.005 | [5] 0.042 | [6] -0.028 | [7] 0 | [8] 0.013 | [9] 0.104 | [10] 0.027 | Nexturastat A 0.002 | vemurafenib 0.025 | [11] -0.033 | [12] -0.043 | givinostat -0.095 | barasertib 0.007

BCKDHA (UniProt P12694)
inactive: IRAK-1-4 Inhibitor I 0.07 | ibrutinib 0.005 | [1] 0.041 | ralimetinib -0.008 | [2] -0.017 | [3] 0.028 | [4] 0.036 | pinometostat 0.032 | [5] -0.001 | [6] 0.081 | [7] -0.014 | [8] 0.003 | [9] -0.039 | [10] -0.048 | Nexturastat A 0.036 | vemurafenib -0.003 | [11] 0.045 | [12] 0.058 | givinostat -0.006 | barasertib 0.075

BLOC1S1 (UniProt P78537)
inactive: IRAK-1-4 Inhibitor I 0 | ibrutinib -0.001 | [1] -0.03 | ralimetinib -0.058 | [2] -0.188 | [3] -0.032 | [4] -0.056 | pinometostat -0.07 | [5] -0.078 | [6] 0.104 | [7] 0.014 | [8] -0.044 | [9] 0.04 | [10] -0.003 | Nexturastat A -0.037 | vemurafenib 0.096 | [11] -0.015 | [12] 0.001 | givinostat 0.024 | barasertib 0.043

BCAP31 isoform 2 (UniProt P51572)
inactive: IRAK-1-4 Inhibitor I 0.055 | ibrutinib -0.013 | [1] 0.008 | ralimetinib -0.049 | [2] 0.029 | [3] 0.057 | [4] 0.019 | pinometostat -0.04 | [5] 0 | [6] -0.027 | [7] 0.018 | [8] 0.017 | [9] -0.064 | [10] -0.004 | Nexturastat A -0.08 | vemurafenib -0.014 | [11] -0.079 | [12] 0.061 | givinostat -0.019 | barasertib 0

3 successive records from above:
BCKDHA (UniProt P12694)
inactive: IRAK-1-4 Inhibitor I 0.07 | ibrutinib 0.005 | [1] 0.041 | ralimetinib -0.008 | [2] -0.017 | [3] 0.028 | [4] 0.036 | pinometostat 0.032 | [5] -0.001 | [6] 0.081 | [7] -0.014 | [8] 0.003 | [9] -0.039 | [10] -0.048 | Nexturastat A 0.036 | vemurafenib -0.003 | [11] 0.045 | [12] 0.058 | givinostat -0.006 | barasertib 0.075

BLOC1S1 (UniProt P78537)
inactive: IRAK-1-4 Inhibitor I 0 | ibrutinib -0.001 | [1] -0.03 | ralimetinib -0.058 | [2] -0.188 | [3] -0.032 | [4] -0.056 | pinometostat -0.07 | [5] -0.078 | [6] 0.104 | [7] 0.014 | [8] -0.044 | [9] 0.04 | [10] -0.003 | Nexturastat A -0.037 | vemurafenib 0.096 | [11] -0.015 | [12] 0.001 | givinostat 0.024 | barasertib 0.043

BCAP31 isoform 2 (UniProt P51572)
inactive: IRAK-1-4 Inhibitor I 0.055 | ibrutinib -0.013 | [1] 0.008 | ralimetinib -0.049 | [2] 0.029 | [3] 0.057 | [4] 0.019 | pinometostat -0.04 | [5] 0 | [6] -0.027 | [7] 0.018 | [8] 0.017 | [9] -0.064 | [10] -0.004 | Nexturastat A -0.08 | vemurafenib -0.014 | [11] -0.079 | [12] 0.061 | givinostat -0.019 | barasertib 0

More entries.

BBC3 (UniProt Q9BXH1)
inactive: IRAK-1-4 Inhibitor I 0.118 | ibrutinib -0.153 | [1] -0.02 | ralimetinib -0.187 | [2] -0.193 | [3] 0.226 | [4] 0.02 | pinometostat -0.066 | [5] 0.086 | [6] 0.169 | [8] -0.11 | [9] 0.006 | [10] -0.054 | Nexturastat A 0.025 | vemurafenib 0.044 | [11] -0.037 | [12] -0.063 | givinostat -0.065 | barasertib -0.005

B3GNT2 (UniProt Q9NY97)
inactive: IRAK-1-4 Inhibitor I -0.019 | ibrutinib 0.027 | [1] 0.02 | ralimetinib -0.035 | [2] -0.06 | [3] -0.07 | [4] 0.014 | pinometostat 0.045 | [5] 0.006 | [6] -0.12 | [7] -0.003 | [8] -0.003 | [9] -0.036 | [10] 0.073 | Nexturastat A -0.024 | vemurafenib 0.022 | [11] 0.017 | [12] 0.089 | givinostat 0.031 | barasertib -0.01

BPGM (UniProt P07738)
inactive: IRAK-1-4 Inhibitor I 0 | ibrutinib 0.038 | [1] -0.019 | ralimetinib 0.027 | [2] -0.022 | [3] 0.038 | [4] 0 | pinometostat -0.078 | [5] 0.02 | [6] 0.017 | [7] -0.044 | [8] 0 | [9] -0.019 | [10] 0.035 | Nexturastat A 0.016 | vemurafenib -0.068 | [11] -0.122 | [12] -0.103 | givinostat -0.015 | barasertib 0.051

B3GNTL1 (UniProt Q67FW5)
inactive: IRAK-1-4 Inhibitor I 0.007 | ibrutinib -0.052 | [1] 0.007 | ralimetinib 0.207 | [2] -0.15 | [3] 0.027 | [4] 0.205 | pinometostat -0.046 | [5] 0.031 | [6] 0.061 | [7] -0.001 | [8] -0.009 | [9] 0.031 | [10] -0.012 | Nexturastat A -0.009 | vemurafenib -0.094 | [11] 0.037 | [12] -0.062 | givinostat -0.037 | barasertib 0.021

ATXN2L (UniProt Q8WWM7)
inactive: IRAK-1-4 Inhibitor I -0.008 | ibrutinib 0.013 | [1] -0.043 | ralimetinib -0.014 | [2] 0.013 | [3] -0.012 | [4] 0.009 | pinometostat 0.037 | [5] 0.013 | [6] 0.008 | [7] 0.033 | [8] 0.017 | [9] 0.006 | [10] 0.026 | Nexturastat A 0.066 | vemurafenib 0.006 | [11] 0.033 | [12] -0.002 | givinostat 0.016 | barasertib 0.005

AZGP1 (UniProt P25311)
inactive: IRAK-1-4 Inhibitor I -0.023 | ibrutinib 0.166 | [1] -0.164 | ralimetinib 0.071 | [2] 0.253 | [3] 0.515 | [4] -0.27 | pinometostat -0.212 | [5] -0.622 | [6] 0.721 | [7] -0.004 | [8] -0.082 | [9] 0.403 | [10] -0.25 | Nexturastat A 0.195 | vemurafenib -0.101 | [11] -0.164 | [12] -0.108 | givinostat -0.18 | barasertib 0.176

BLMH (UniProt Q13867)
inactive: IRAK-1-4 Inhibitor I 0.044 | ibrutinib 0.003 | [1] -0.045 | ralimetinib -0.112 | [2] -0.039 | [3] 0.063 | [4] -0.091 | pinometostat -0.023 | [5] 0.028 | [6] 0.011 | [7] 0.019 | [8] 0.038 | [9] 0.115 | [10] 0.009 | Nexturastat A -0.06 | vemurafenib 0.041 | [11] -0.034 | [12] 0.013 | givinostat -0.087 | barasertib -0.026

BABAM2 (UniProt Q9NXR7)
inactive: IRAK-1-4 Inhibitor I 0.024 | ibrutinib 0.024 | [1] 0.004 | ralimetinib 0.065 | [2] -0.014 | [3] 0.076 | [4] -0.011 | pinometostat 0.021 | [5] 0.05 | [6] 0.022 | [7] 0.016 | [8] -0.098 | [9] -0.057 | [10] -0.013 | Nexturastat A -0.012 | vemurafenib -0.046 | [11] 0.006 | [12] -0.037 | givinostat -0.013 | barasertib -0.015

BAX isoform 2 (UniProt Q07812)
inactive: IRAK-1-4 Inhibitor I -0.007 | ibrutinib -0.033 | [1] -0.023 | ralimetinib -0.015 | [2] 0.033 | [3] 0.058 | [4] 0.001 | pinometostat -0.073 | [5] 0.001 | [6] 0.118 | [7] 0.023 | [8] -0.014 | [9] 0.019 | [10] 0.045 | Nexturastat A 0.101 | vemurafenib -0.043 | [11] -0.004 | [12] -0.058 | givinostat -0.017 | barasertib 0.043

BCS1L (UniProt Q9Y276)
inactive: IRAK-1-4 Inhibitor I 0.048 | ibrutinib 0.03 | [1] 0.008 | ralimetinib -0.052 | [2] -0.001 | [3] 0.026 | [4] 0.001 | pinometostat 0.016 | [5] -0.017 | [6] -0.018 | [7] -0.004 | [8] -0.03 | [9] 0.011 | [10] -0.014 | Nexturastat A -0.043 | vemurafenib -0.026 | [11] -0.007 | [12] 0.016 | givinostat 0.031 | barasertib 0.027

BCAT1 (UniProt P54687)
inactive: IRAK-1-4 Inhibitor I 0.046 | ibrutinib -0.005 | [1] -0.009 | ralimetinib -0.063 | [2] 0.009 | [3] 0.034 | [4] -0.02 | pinometostat -0.013 | [5] -0.015 | [6] 0.007 | [7] -0.021 | [8] 0.026 | [9] 0.045 | [10] 0.003 | Nexturastat A -0.047 | vemurafenib -0.006 | [11] -0.011 | [12] -0.038 | givinostat -0.092 | barasertib -0.011

BRI3BP (UniProt Q8WY22)
inactive: IRAK-1-4 Inhibitor I -0.054 | ibrutinib 0.051 | [1] -0.027 | ralimetinib -0.102 | [2] 0.105 | [3] -0.019 | [4] -0.008 | pinometostat 0.082 | [5] 0.013 | [6] 0.055 | [7] -0.009 | [8] 0.043 | [9] -0.018 | [10] -0.014 | Nexturastat A 0.119 | vemurafenib -0.105 | [11] -0.007 | [12] -0.063 | givinostat -0.066 | barasertib 0.038
